Experimental data reported in PubChem BioAssay AID1347426 (Functional Genomics Laboratory (NCATS/FGL), 2020).
Among all 31,000 sequences or so, about 1,400 (4.5%) were called active.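 The calls were made as follows: active = median seed-adjusted z-score above 1 or below -1; inactive = the rest.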 The list shows a part of the results.

Test: Novel Modifiers of Survival Motor Neuron (SMN) Protein: Gene Identification via Genome-wide siRNA Screen;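 also: luminescence tracks full-length SMN protein made from the SMN2 reporter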
Conditions: HEK293T SMN2-luciferase reporter, siRNA knockdown, 72 h; actives lie on both sides
Procedure, shortened: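 siRNA screen, 10418 genes ×3 siRNAs; 1 pmol/well, lipid reverse transfection into HEK293T SMN2-luc reporter line. 72 h, 37 °C, 5% CO2; ONE-Glo readout. Data: neg-ctrl normalized, log10, MAD; hit = MAD >1.0 or < -1.0.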

Sequence | median seed-adjusted z-score
GCAAGGUUUUUGGGACUGATT against SALL4 | inactive: -0.344
GGAAGAAAGUAUAAUAGAATT against MAFG | inactive: 0
CAUAAUCGAAGGUCUGAAATT against KCNAB2 | inactive: 0
UGACUCCAAUGGGAAGAAATT against DHX33 | inactive: -0.689
GGAACGUGUUGACUGAAGATT against C5AR1 | inactive: 0.366
GCAUGGAUUCGGAAGGAAATT against RCC1 | inactive: -0.165
GGAUUUACGACAUUACCAATT against E2F4 | inactive: -0.395
GUCAGACCGUUGUAAAUCATT against TAAR6 | inactive: -0.124
GCAUGAUAGUUUUCCGGCUTT against AHR | inactive: -0.0422
GGAUACCAUCUAUUACCAUTT against AGBL5 | inactive: 0.0343
GGACCUUGGAUUAUCUGAATT against YME1L1 | inactive: 0.131
UGAGAACCGUAUUUUCAAATT against PRODH2 | inactive: 0.817
GGAACUACCAUGCAGGCUATT against ATP6V0B | inactive: 0
GGAUGGAGACUACGAGUUUTT against STK4 | inactive: 0.652
GAUAAGAGGUCGGUACAUATT against GRIA4 | inactive: 0
CUAUCUUCCUAGUAGUUCUTT against CDKL3 | inactive: 0.243
GGUCUAUUCCUACGCUCUATT against NUDT5 | inactive: 0.228
GUGUAAAUCAUUUCGAUCATT against CD180 | inactive: 0
GGGACGUACAGAUUCCUUUTT against ACOT4 | inactive: -0.158
AGACAAUUUGUAACUAGAATT against NEUROD2 | inactive: -0.103
GAGUAAAGAUUGUACAGCUTT against TNKS2 | inactive: 0.0545
CCAUUCCAAGGACCAAUGATT against SLC2A10 | inactive: -0.0407
ACGACUCCAUUGCCGAGGATT against POLR3H | inactive: 0

Sequence | median seed-adjusted z-score
GCUAUGAUGUAGUAAAGGATT against CYP2R1 | inactive: -0.981
GUUCAAUAGUGAAACUCGATT against PTPN22 | inactive: -0.0843
CCUCAAGGAUUGGGACUAUTT against SLC22A17 | inactive: -0.149
GAGAGCAACUUAAAGACGATT against ST18 | inactive: 0.0762
ACUUAUUUGGAUUUCCUUUTT against MYOG | inactive: -0.0972
CAUGUUCUCUAAUAGCACATT against KDR | inactive: 0.0728
GGAAAAGUUCUGAAGACUATT against CPOX | inactive: -0.135
CUUCCCGUUUGAUUACCAATT against CHRNA3 | inactive: -0.359
GAACUGUGAAUUAGAUGUATT against F9 | inactive: 0.332
GAAGGAUGUUGGUCCUAGATT against SIK2 | inactive: 0.055
GUUGCUCACUGAGACCAAATT against TDRKH | inactive: -0.434
CUUUCACAGUGGACAGUAATT against CNTF | inactive: 0.3
CCAAGCUCCAUAUUAUUAATT against CLIC6 | inactive: -0.00828
GUUAUUCCCUGUUCUCGAATT against ALDH5A1 | inactive: 0.339
UCUGCAUCGUGGUAUCCAATT against GLP1R | inactive: 0
AGAAGGUGACUCAAAGAAUTT against WFDC1 | inactive: 0.152
CAACCUCACUGCAAACAGUTT against TMCO6 | inactive: -0.227
AGAUAGACACUUUCUUUUUTT against LILRB5 | inactive: 0.834
CAACUAAGCGAGGAGCAAATT against RACGAP1 | inactive: 0
GCCGAACACUUCUCCAUCATT against MEX3D | inactive: -0.337
AGAUAUUUUUACAAGCUAATT against TWIST2 | inactive: 0.363
CUAUCGGUGUGGGAAAGAATT against RBM4B | inactive: -0.251
GCACAAACCUUGGGUCGAATT against DBF4 | inactive: -0.319

Sequence | median seed-adjusted z-score
GAUACGAUGUUCAACGGAATT against SHPRH | inactive: 0.169
UCAACUGUCUUUUACCCAATT against TKT | inactive: 0.0314
CAACCGCAAUGGUGAUGAATT against SLC12A5 | inactive: -0.22
GACCCACGCUUUUCUAAGATT against CKMT2 | inactive: -0.862
CAACGAAGUUGAUGAUCAUTT against ZNF432 | inactive: -0.124
GAAGGACUAUAGUCUGUUATT against COIL | inactive: 0
GGGCUUUGAUAGGAAUGCATT against UBE2K | inactive: 0.497
CCAAAGAUAUCGGACCCUATT against PI4K2A | inactive: -0.486
CUUUAACUAUGGAAAGACATT against ZNF253 | inactive: 0.0237
GCUUGAAGUUAAUAGGUUUTT against CHKA | inactive: -0.558
GCCUUCUUCCGGAACAUCATT against KCNA6 | inactive: 0
CAGCUGUGCUAAUAGGAUUTT against MFSD8 | inactive: -0.461
GCCUAUCAGGAUCCCAGCATT against RIN1 | inactive: -0.0694
GCAGUUAACCGGGUACCAATT against TKT | inactive: 0.0314
UCAAGUUCGAGAUCCCUUATT against AP1M1 | inactive: 0.42
GUCCUUUGCUUAUACAUCUTT against ZNF586 | inactive: -0.973
GAUUGAGGCCUACAUGGAATT against ITPK1 | inactive: 0.0575
GAAAGAUCGAGAUAGACAATT against TWF1 | inactive: -0.171
GGACAUUGCAAGUAUCUCUTT against GABRP | inactive: -0.441
GAAACUAUAUCCACAUCAATT against GIPR | inactive: 0.475
AGUACUCCCUGGACCUUCATT against CACNA1I | inactive: 0.346
CUCUCUUAUUUGUACCGGUTT against VEGFA | inactive: 0.495
GUAUCAUGACUACAGCGAUTT against DPT | inactive: 0.073

Quoted at random: 6 records from the list, in no set order.
Sequence | median seed-adjusted z-score
GCAGUUAACCGGGUACCAATT against TKT | inactive: 0.0314
GCCUAUCAGGAUCCCAGCATT against RIN1 | inactive: -0.0694
GCUUGAAGUUAAUAGGUUUTT against CHKA | inactive: -0.558
GAAGGACUAUAGUCUGUUATT against COIL | inactive: 0
CUCUCUUAUUUGUACCGGUTT against VEGFA | inactive: 0.495
GUAUCAUGACUACAGCGAUTT against DPT | inactive: 0.073
